Earlier results, collected in US8765776B2, “Antihypertensive pharmaceutical composition” (Boryung Pharmaceutical Co., Ltd., priority 2011, dated 2014).
At least one compound was matched to its structure with a doubt left.

System: patients with mild to moderate essential hypertension
Details: cited from earlier work

SMILES: CCCCc1nc(C)c(CC(=S)N(C)C)c(=O)n1Cc1ccc(-c2ccccc2-c2nnn[nH]2)cc1 [Fimasartan, 2-n-butyl-5-dimethylaminothiocarbonyl-methyl-6-methyl-3-[[2′-(1H-tetrazol-5-yl)biphenyl-4-yl]methyl]pyrimidin-4(3H)-one]
- Change in diastolic blood pressure (DBP) in the sitting position relative to baseline (Week 12 of drug administration, dose 60 mg to 120 mg, patients with mild to moderate essential hypertension): −11.26±7.53 mmHg
- Antihypertensive effects, Fimasartan compared with Losartan (after 12- or 24-week administration): higher in Fimasartan than Losartan
